Experimental findings from paper PMC8391104, “Molecular mechanism of Mad1 kinetochore targeting by phosphorylated Bub1” (EMBO Reports, 2021) are described below.

Assay [1] deals with Mad1 (420-718) in complex with C-Mad2 (Mad1:C-Mad2 tetramer) (UniProt Q9Y6D9). Description: ITC; Bub1^CD1 peptide (0.3-1.5 mM) titrated into Mad1 (30-100 µM) in the cell; 20°C; 20 mM HEPES pH 7.5, 100 mM NaCl, 1 mM TCEP; single-site model; stoichiometry counted on dimeric Mad1^CTD; both purified. (Isothermal titration calorimetry measures the heat released or taken up as one component is titrated into another.)

The target in assay [2] is Mad1 (485-718) in complex with C-Mad2 (Mad1:C-Mad2 tetramer) (UniProt Q9Y6D9). The description is as above.
In assay [3] the target is T1, Mad1^CTD F629A (human) (UniProt Q9Y6D9).
T1 sequence: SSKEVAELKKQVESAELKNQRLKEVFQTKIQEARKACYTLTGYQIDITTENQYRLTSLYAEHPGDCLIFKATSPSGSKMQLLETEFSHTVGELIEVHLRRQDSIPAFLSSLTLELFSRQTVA
Description: condition: Mad1 30-100 µM in the cell, peptide 0.3-1.5 mM titrated; ITC; Bub1^CD1 peptide (0.3-1.5 mM) titrated into Mad1 (30-100 µM) in the cell; 20°C; 20 mM HEPES pH 7.5, 100 mM NaCl, 1 mM TCEP; single-site model; stoichiometry counted on dimeric Mad1^CTD; both purified.

Assay [4] deals with T2, Mad1^CTD L618A (human) (UniProt Q9Y6D9).
T2 sequence: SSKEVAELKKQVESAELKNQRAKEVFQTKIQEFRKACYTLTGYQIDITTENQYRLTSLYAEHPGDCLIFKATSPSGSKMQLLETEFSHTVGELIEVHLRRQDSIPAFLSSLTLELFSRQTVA
The assay is described as above.

No constants are given. Whether binding was seen depends on the method and setting. Some entries that bind do so weakly or less than the wild type.

Take KVQPSPTVHTKEALGFIMNMFQAPTS (phosphoserine at 459, phosphothreonine at 461) [doubly phosphorylated Bub1^CD1 peptide (pSer459-pThr461)]: the binding result in assay [1] is given as “binds”; in assay [2], “binds”; in assay [3], “no binding”; in assay [4], “no binding”.
